These are yes or no findings as the source states them, for the method shown. In cells and extracts the contact can be indirect. Some entries that bind do so weakly or less than the wild type.
Biological target: MRG15 (MORF4-Related Gene on chromosome 15) conjugated with the Flag tag (human) (UniProt Q9UBU8)
Assay: co-IP; anti-Flag M2 affinity gel incubated with 500 µg whole-cell lysate (NETN buffer) of transfected U2OS cells overnight at 4 °C; eluted with 3x Flag peptide; eluates analysed by immunoblotting

By UniProt entry, the sequences of proteins in these tests, tags left out. Where a name states a change or a piece, a line headed by the entry shows the natural chain unless it says otherwise.
UniProt Q9UBU8: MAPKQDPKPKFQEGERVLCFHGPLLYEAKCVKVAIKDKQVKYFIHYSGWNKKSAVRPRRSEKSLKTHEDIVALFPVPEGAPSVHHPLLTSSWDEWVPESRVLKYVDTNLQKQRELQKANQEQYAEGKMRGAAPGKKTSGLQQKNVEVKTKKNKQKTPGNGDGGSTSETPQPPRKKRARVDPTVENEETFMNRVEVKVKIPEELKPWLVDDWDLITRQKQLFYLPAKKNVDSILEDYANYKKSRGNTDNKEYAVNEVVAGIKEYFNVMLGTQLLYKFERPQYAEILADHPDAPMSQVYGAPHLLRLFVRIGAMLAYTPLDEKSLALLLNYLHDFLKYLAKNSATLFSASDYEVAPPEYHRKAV
UniProt Q16531: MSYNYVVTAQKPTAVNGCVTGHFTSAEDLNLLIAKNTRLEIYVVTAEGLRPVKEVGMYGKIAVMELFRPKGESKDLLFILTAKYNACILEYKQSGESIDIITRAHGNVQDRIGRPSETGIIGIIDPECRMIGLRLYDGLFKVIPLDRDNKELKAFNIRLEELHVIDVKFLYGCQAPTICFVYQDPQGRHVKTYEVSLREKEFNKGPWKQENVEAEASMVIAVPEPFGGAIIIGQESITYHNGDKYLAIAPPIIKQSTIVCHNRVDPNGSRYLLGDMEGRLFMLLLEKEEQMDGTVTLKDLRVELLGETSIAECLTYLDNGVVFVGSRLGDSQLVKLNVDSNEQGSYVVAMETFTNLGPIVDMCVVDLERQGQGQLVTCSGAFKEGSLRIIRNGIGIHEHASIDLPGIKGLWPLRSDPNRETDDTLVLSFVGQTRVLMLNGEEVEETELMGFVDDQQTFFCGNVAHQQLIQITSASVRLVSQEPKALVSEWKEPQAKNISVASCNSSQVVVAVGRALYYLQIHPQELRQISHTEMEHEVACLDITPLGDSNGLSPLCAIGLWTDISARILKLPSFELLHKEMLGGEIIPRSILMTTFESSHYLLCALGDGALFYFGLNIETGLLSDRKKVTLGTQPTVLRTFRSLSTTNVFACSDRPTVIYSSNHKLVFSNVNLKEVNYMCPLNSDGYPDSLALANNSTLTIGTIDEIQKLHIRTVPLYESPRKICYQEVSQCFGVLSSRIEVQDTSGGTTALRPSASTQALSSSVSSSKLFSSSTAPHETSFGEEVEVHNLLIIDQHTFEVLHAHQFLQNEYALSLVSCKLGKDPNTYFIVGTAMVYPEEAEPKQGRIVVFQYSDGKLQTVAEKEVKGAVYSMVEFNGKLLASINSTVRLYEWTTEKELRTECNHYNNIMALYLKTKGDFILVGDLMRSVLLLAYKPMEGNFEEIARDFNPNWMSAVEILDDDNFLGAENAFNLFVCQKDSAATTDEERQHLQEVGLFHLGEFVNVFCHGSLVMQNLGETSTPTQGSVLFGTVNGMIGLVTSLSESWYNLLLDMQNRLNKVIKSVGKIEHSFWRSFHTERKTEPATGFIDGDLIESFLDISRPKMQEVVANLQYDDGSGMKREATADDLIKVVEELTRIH
UniProt Q9Y5B9: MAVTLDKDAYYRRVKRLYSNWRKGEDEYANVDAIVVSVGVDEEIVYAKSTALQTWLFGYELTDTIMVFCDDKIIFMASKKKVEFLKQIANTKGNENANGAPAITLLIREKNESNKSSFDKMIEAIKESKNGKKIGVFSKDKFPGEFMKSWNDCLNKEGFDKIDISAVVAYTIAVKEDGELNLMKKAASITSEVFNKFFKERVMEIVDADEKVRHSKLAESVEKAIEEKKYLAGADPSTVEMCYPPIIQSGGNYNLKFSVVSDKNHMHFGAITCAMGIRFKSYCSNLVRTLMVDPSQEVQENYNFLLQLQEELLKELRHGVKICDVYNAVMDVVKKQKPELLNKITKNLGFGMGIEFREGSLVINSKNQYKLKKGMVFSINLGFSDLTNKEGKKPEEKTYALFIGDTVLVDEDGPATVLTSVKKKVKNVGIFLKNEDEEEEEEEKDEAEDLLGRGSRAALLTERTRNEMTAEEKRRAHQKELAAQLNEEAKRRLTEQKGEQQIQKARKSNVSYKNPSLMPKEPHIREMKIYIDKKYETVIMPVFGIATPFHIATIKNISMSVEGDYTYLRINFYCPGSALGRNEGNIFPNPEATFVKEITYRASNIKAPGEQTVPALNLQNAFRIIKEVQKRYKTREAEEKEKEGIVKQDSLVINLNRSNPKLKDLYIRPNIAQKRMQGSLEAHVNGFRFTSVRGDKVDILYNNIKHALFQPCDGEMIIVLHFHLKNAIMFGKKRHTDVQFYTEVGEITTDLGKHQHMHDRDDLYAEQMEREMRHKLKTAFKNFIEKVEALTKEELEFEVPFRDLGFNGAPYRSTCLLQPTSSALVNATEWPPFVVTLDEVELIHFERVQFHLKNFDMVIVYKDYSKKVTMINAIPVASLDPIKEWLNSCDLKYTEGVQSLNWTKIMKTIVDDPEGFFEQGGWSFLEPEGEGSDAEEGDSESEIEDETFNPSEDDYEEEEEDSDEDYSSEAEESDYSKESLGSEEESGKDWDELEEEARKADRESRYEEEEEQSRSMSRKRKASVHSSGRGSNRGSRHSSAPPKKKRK

| binding | Substance |
| --- | --- |
| binds | DDB1-DDB2 (from UniProt Q16531 1-1140; Q92466 1-427) (complex) |
| binds | SPT16 (SuPpressor of Ty 16) (from UniProt Q9Y5B9 1-1047) |
